According to article PMC4829694:
These are yes or no findings as the source states them, for the method shown. Binding seen in cells or lysates may run through a third protein. A result given as binding can be weak or reduced; the word gives no strength.

Chains of the proteins cited; added tags and fusions are not shown. Lines headed by an entry give the natural chain unless they say otherwise; changes in a name come on top.
UniProt P23772: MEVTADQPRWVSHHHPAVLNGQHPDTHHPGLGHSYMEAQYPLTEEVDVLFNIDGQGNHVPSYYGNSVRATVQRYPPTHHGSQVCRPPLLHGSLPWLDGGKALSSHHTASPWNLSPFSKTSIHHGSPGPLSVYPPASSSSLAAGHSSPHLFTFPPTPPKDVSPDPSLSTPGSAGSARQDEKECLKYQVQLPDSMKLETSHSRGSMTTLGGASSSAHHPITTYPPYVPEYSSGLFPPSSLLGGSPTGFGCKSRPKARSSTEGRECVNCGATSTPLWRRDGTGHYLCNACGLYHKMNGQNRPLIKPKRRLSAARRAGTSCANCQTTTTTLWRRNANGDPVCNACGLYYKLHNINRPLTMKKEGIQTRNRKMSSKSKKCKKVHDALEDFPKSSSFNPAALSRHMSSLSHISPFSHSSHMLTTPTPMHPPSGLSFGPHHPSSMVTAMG
UniProt Q6PDQ2: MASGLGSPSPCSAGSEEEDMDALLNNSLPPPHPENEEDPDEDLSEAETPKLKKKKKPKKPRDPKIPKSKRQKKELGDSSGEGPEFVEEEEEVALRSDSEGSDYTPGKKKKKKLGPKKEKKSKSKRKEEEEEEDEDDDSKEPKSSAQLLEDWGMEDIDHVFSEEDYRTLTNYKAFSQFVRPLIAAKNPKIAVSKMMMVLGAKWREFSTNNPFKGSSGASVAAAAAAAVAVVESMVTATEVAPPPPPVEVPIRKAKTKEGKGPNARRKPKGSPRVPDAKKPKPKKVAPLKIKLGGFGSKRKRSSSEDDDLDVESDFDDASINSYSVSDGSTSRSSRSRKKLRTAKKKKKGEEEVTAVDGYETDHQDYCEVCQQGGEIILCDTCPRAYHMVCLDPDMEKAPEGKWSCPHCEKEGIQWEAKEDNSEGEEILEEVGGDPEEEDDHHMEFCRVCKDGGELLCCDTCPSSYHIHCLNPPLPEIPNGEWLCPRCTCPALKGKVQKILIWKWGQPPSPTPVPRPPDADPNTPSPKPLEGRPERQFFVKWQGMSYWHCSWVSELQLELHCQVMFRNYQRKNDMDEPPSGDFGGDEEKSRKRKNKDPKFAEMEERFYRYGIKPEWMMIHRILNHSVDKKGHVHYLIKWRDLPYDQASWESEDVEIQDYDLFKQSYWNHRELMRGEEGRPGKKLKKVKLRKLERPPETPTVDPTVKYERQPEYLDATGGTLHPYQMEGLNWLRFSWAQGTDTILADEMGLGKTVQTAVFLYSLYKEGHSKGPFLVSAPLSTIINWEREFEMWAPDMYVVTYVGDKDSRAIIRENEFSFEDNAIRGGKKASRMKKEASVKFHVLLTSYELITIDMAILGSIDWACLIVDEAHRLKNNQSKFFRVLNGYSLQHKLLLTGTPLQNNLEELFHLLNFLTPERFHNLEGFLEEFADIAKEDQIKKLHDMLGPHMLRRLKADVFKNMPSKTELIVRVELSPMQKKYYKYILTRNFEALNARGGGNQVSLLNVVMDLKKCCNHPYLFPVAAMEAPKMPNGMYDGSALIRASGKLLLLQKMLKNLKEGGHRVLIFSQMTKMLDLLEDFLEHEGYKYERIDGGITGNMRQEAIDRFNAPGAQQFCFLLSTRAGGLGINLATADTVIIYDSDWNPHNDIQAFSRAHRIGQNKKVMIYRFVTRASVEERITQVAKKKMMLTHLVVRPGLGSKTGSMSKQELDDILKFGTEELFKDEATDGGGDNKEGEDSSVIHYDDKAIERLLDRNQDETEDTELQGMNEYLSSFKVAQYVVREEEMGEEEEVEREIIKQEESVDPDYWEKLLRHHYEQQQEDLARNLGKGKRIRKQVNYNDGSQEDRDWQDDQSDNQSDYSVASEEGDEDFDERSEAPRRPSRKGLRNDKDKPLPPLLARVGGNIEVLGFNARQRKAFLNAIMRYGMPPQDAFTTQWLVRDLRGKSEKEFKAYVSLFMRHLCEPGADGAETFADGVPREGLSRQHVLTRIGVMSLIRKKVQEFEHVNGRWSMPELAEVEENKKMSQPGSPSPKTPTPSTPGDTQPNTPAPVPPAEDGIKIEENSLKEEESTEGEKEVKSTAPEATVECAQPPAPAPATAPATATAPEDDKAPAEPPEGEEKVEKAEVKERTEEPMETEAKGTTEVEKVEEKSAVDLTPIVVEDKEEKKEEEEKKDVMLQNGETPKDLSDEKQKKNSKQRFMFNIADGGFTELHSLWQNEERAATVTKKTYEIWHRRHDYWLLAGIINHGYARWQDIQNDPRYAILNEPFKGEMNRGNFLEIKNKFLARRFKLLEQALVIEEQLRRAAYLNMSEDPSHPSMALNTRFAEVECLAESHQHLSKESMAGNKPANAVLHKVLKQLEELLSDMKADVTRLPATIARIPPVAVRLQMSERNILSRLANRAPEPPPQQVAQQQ

Molecular target: Flag-tagged Gata3 dNCF (deletion of both zinc fingers) (UniProt P23772)
Test: co-IP; 293T cells co-transfected with Flag-tagged Gata3 (WT or mutant) and the Myc- or HA-tagged partner; RIPA lysates; IP with anti-Flag mAb, IB with anti-Myc or anti-HA

binding: binds weakly
Substance: Myc-tagged Chd4 (from UniProt Q6PDQ2 1-1915)
